From the supplement of paper PMC11409438
Counter-ions that a name gives are not always drawn. Some of the results follow. Many values rest on one well or one pass, so single values are uncertain.

Tested on: Caenorhabditis elegans ST65 (ncIs13[ajm-1::GFP])
Test: vulvae per adult worm (MAPK/ERK-dependent vulval induction, MetaXpress) (vulvae/adult); higher = more vulval induction (less MAPK/ERK inhibition)
Conditions: 10 µM; exposure time: 4-5 days from L1 at 20°C

Structure (SMILES)	vulvae per adult worm
CNC(=O)c1ccc(N2C(=S)N(c3cnc(C#N)c(C(F)(F)F)c3)C(=O)C23CCC3)cc1F	0.833
CC[C@@H]1C(=O)OC[C@@H]1Cc1cncn1C [Pilocarpine HCl]	0.9
O=C(/C=C\n1cnc(-c2cc(C(F)(F)F)cc(C(F)(F)F)c2)n1)NNc1cnccn1 [Selinexor (KPT-330)]	0.645
C=CC[C@@H]1/C=C(\C)C[C@H](C)C[C@H](OC)[C@H]2O[C@@](O)(C(=O)C(=O)N3CCCC[C@H]3C(=O)O[C@H](/C(C)=C/[C@@H]3CC[C@@H](O)[C@H](OC)C3)[C@H](C)[C@@H](O)CC1=O)[C@H](C)C[C@@H]2OC [Tacrolimus (FK506)]	0.714
CO[C@H]1C[C@@H]2CC[C@@H](C)[C@@](O)(O2)C(=O)C(=O)N2CCCC[C@H]2C(=O)O[C@H]([C@H](C)C[C@@H]2CC[C@@H](OCCO)[C@H](OC)C2)CC(=O)[C@H](C)/C=C(\C)[C@@H](O)[C@@H](OC)C(=O)[C@H](C)C[C@H](C)/C=C/C=C/C=C/1C [Everolimus (RAD001)]	0.833
C#Cc1cccc(Nc2ncnc3cc(OCCOC)c(OCCOC)cc23)c1 [Erlotinib]	0.75
Nc1nc(NC2CC2)cc(-c2cccc(Cl)c2Cl)n1	1.5
CC(=O)N(O)CCCCCNC(=O)CCC(=O)N(O)CCCCCNC(=O)CCC(=O)N(O)CCCCCN [Deferoxamine mesylate]	0.672
COC[C@H](NC(=O)c1cnc(C)s1)C(=O)N[C@@H](COC)C(=O)N[C@@H](Cc1ccccc1)C(=O)[C@@]1(C)CO1 [Oprozomib (ONX 0912)]	0.914
Cn1cnc2c(F)c(Nc3ccc(Br)cc3Cl)c(C(=O)NOCCO)cc21 [Selumetinib (AZD6244)]	1
CC1=C(/C=C/C(C)=C/C=C/C(C)=C/C(=O)O)C(C)(C)CCC1 [Tretinoin]	0.75
CCN(CC)Cc1ccc2cc(COC(=O)Nc3ccc(C(=O)NO)cc3)ccc2c1 [Givinostat (ITF2357)]	1
CC[C@]1(O)C[C@@H]2CN(CCc3c([nH]c4ccccc34)[C@@](C(=O)OC)(c3cc4c(cc3OC)N(C)[C@H]3[C@@](O)(C(=O)OC)[C@H](OC(C)=O)[C@]5(CC)C=CCN6CC[C@]43[C@@H]65)C2)C1 [Vinblastine sulfate]	1.09
C[C@@H]1CCN(C(=O)CC#N)C[C@@H]1N(C)c1ncnc2[nH]ccc12	0.973
Cc1ncc(Cl)cc1NCc1ccc(C(=O)N[C@@H](CC2CCCC2)C(=O)NC2CC2)s1	0.429
CNc1ncc2cc(-c3cc(NC(=O)NCCC(C)(C)C)c(F)cc3C)c(C)nc2n1	1.19
Cc1c(Cn2c(C)nc3c(C(=O)O)cc(N4CCOCC4)cc32)cccc1C(F)(F)F	1.07
COc1cc2c(Oc3ccc4[nH]c(C)cc4c3F)ncnc2cc1OCCCN1CCCC1 [Cediranib (AZD2171)]	0.951
O=c1[nH]c(=O)n([C@H]2C[C@H](O)[C@@H](CO)O2)cc1C(F)(F)F [Trifluridine]	1.11

Structure (SMILES)	vulvae per adult worm
CC(C)(C)c1cc(NC(=O)Nc2ccc(Oc3ccnc4[nH]c(=O)cnc34)cc2F)n(-c2ccccc2)n1	1.03
CC(=O)c1cc2c(o1)C(=O)c1ccccc1C2=O [Napabucasin]	0.632
O=C(Nc1nc2cccc(-c3ccc(CN4CCS(=O)(=O)CC4)cc3)n2n1)C1CC1 [Filgotinib (GLPG0634)]	1.08
CCc1nc(C(N)=O)c(Nc2ccc(N3CCC(N4CCN(C)CC4)CC3)c(OC)c2)nc1NC1CCOCC1 [Gilteritinib (ASP2215)]	0.966
COc1cc(C(=O)O)ccc1NC(=O)[C@@H]1N[C@@H](CC(C)(C)C)[C@](C#N)(c2ccc(Cl)cc2F)[C@H]1c1cccc(Cl)c1F [Idasanutlin (RG-7388)]	0.865
CC(=O)O[C@H]1C(=O)[C@@]2(C)[C@H]([C@H](OC(=O)c3ccccc3)[C@]3(O)C[C@H](OC(=O)[C@H](O)[C@@H](NC(=O)c4ccccc4)c4ccccc4)C(C)=C1C3(C)C)[C@]1(OC(C)=O)CO[C@@H]1C[C@@H]2O [Paclitaxel]	1.11
Cc1cc(Nc2cc(N3CCN(C)CC3)nc(Sc3ccc(NC(=O)C4CC4)cc3)n2)n[nH]1 [Tozasertib (VX-680, MK-0457)]	0.822
CNC(=O)c1ccc(C)c(-n2c(C)cc(OCc3ccc(F)cc3F)c(Br)c2=O)c1	1.15
NC[C@@](O)(c1ccc(Cl)cc1)c1ccc(-c2cn[nH]c2)cc1	1.31
CC[C@H](Nc1ncnc2[nH]cnc12)c1nc2cccc(F)c2c(=O)n1-c1ccccc1 [Idelalisib (CAL-101, GS-1101)]	1.22
CC(C)(O)CC(=O)NCCn1ccc2ncnc(Nc3ccc(Oc4cccc(C(F)(F)F)c4)c(Cl)c3)c21	0.462
Cc1cc(-c2ncc(CC(=O)Nc3ccc(-c4cnccn4)cn3)cc2C)ccn1	0.95
COC(=O)c1ccc2c(c1)[nH]c1ncnc(NCCCN3CCCCC3)c12	0.833
COc1ccc(S(=O)(=O)Nc2cccnc2Nc2ccc(O)cc2)cc1	0.81
CC/C(=C(\c1ccc(O)cc1)c1ccc(OCCN(C)C)cc1)c1ccccc1 [4-Hydroxytamoxifen]	1.57
CCn1cc(-c2ccnc3[nH]c(-c4cccc(CN(C)C)c4)cc23)c(-c2ccc(NC(=O)N(C)C)cc2)n1	0.703
Cc1ncc(-c2ccnc(Nc3ccc(S(C)(=O)=O)cc3)n2)n1C(C)C	1.38
COc1nc(N)nc2c1ncn2[C@@H]1O[C@H](CO)[C@@H](O)[C@@H]1O [Nelarabine]	1.03
C[C@]12C=CC(=O)C=C1CC[C@@H]1[C@@H]2[C@@H](O)C[C@@]2(C)[C@H]1CC[C@]2(O)C(=O)CO [Prednisolone]	1

A second format for some results above.
Cc1ncc(-c2ccnc(Nc3ccc(S(C)(=O)=O)cc3)n2)n1C(C)C
  vulvae per adult worm: 1.38
COc1nc(N)nc2c1ncn2[C@@H]1O[C@H](CO)[C@@H](O)[C@@H]1O [Nelarabine]
  vulvae per adult worm: 1.03
